Experimental findings from paper PMC5709413 are described below.

Protein sequences, listed by entry. Tags and fused reporters are not part of them.
UniProt Q8CGC7: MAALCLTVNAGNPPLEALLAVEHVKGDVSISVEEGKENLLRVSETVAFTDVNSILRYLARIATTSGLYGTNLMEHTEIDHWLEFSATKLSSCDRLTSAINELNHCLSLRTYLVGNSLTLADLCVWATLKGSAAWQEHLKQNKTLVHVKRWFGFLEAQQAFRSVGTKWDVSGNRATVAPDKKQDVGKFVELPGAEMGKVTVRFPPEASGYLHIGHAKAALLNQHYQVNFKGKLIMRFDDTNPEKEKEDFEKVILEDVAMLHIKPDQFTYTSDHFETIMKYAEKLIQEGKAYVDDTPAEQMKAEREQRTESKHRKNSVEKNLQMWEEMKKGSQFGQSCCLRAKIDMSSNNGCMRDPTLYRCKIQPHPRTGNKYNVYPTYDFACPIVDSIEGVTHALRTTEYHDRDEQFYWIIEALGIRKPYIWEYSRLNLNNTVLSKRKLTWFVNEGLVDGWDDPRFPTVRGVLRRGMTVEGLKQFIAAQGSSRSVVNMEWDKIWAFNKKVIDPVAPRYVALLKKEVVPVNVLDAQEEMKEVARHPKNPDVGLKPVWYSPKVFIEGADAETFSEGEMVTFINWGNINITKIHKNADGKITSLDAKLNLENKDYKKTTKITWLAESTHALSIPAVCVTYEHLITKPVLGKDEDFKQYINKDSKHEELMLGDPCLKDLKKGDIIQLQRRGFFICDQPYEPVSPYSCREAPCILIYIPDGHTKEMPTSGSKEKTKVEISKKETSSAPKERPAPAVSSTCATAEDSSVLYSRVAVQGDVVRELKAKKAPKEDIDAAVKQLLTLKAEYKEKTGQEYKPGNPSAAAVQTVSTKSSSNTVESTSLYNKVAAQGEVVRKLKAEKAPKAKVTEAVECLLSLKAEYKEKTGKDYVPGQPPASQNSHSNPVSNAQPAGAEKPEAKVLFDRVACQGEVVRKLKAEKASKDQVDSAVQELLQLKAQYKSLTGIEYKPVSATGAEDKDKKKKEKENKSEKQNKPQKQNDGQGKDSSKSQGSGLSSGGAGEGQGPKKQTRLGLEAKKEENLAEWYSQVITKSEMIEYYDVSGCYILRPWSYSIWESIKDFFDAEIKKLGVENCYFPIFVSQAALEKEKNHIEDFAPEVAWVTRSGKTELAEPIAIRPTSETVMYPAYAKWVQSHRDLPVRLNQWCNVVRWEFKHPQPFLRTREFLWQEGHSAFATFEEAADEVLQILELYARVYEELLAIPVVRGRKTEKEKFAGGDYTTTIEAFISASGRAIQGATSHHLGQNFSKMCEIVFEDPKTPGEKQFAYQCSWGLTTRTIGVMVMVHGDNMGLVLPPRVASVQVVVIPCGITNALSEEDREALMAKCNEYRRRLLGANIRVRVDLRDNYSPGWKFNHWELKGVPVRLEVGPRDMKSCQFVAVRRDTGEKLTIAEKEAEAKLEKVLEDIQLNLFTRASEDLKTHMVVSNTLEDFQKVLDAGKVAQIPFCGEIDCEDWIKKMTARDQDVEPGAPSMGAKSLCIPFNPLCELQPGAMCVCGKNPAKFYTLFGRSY

Assay [1] deals with T1, GST-BEX1 (brain-expressed X-linked protein 1 fused to glutathione-S-transferase) (UniProt Q9R224).
T1 sequence: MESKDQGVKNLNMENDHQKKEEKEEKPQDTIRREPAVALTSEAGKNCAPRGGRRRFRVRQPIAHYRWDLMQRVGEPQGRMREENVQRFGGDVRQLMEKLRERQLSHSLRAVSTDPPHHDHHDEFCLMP
The experiment in a line: pull-down; GST-BEX1 incubated with cardiac extracts of WT mouse hearts, without micrococcal nuclease; Western blot of the partners; only the target purified.

Assay [2] addresses T2, BEX1 (wild-type, untagged, from BEX1 transgenic mouse hearts) (UniProt Q9R224).
T2 sequence: T1 sequence
In words: co-IP; BEX1 immunoprecipitated with anti-BEX1 (IgG as control) from BEX1 transgenic mouse hearts; Western blot for the endogenous partners.

Assay [3] deals with Glutamyl-Prolyl-tRNA Synthetase (EPRS) (mouse (endogenous in mouse heart)) (UniProt Q8CGC7). The experiment in a line: co-IP; reverse: endogenous DDX1, DDX3x, EPRS, PHF11 or hnRNPH1 immunoprecipitated with specific antibodies (IgG as control) from a BEX1 transgenic mouse heart; Western blot for BEX1.

No constants are given. Whether binding was seen depends on the method and setting. In cells and extracts the contact can be indirect. Some binding calls cover weakened binding; strength is not graded here. Sequences can lack the tags named with a protein.

For the molecule “Glutamyl-Prolyl-tRNA Synthetase (EPRS) (from UniProt Q8CGC7 1-1512)”, the binding entry in assay [1] and in assay [2] was “binds” in each case.

B1: BEX1 (wild-type, untagged, from BEX1 transgenic mouse hearts) (protein, UniProt Q9R224 1-128)
chain: T1 sequence
B1: the binding entry in assay [3] is “binds”.
